PubChem BioAssay AID1259425 | University of Nebraska Medical Center – 2018

Test: 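Compare each knockdown with KSR1 silencing using changes in marker transcripts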 (primary screen)
Cells: HCT116 human colon cancer cells
Reagents: siRNA pool against human genes, 50 nM siRNA
Read-out: 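After 50 nM siRNA pool, branched-DNA assay measures six marker transcripts per well, minus blank, normalised to the geometric mean of two housekeeping transcripts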
Direction: BNIP3L mRNA: higher = more BNIP3L transcript after knockdown
In all, the deposit lists about 14,000 reagents; this is a random part of them. Not all columns of the deposit are shown. Not stated in the record: the time to read-out.

GRM3
- BNIP3L mRNA, set 1: 0.22

AMHR2
- BNIP3L mRNA, set 1: 0.108

MET
- BNIP3L mRNA, set 1: 0.0891

BOK
- BNIP3L mRNA, set 1: 0.0669

KRT15
- BNIP3L mRNA, set 1: 0.132

ZNF19
- BNIP3L mRNA, set 1: 0.112

MYH15
- BNIP3L mRNA, set 1: 0.192

CAMSAP2
- BNIP3L mRNA, set 1: 0.0647

PRAF2
- BNIP3L mRNA, set 1: 0.0933

ITGB2
- BNIP3L mRNA, set 1: 0.0566

EPS8L2
- BNIP3L mRNA, set 1: 0.264

BCL11A
- BNIP3L mRNA, set 1: 0.0846

SPG21
- BNIP3L mRNA, set 1: 0.0672

DOCK7
- BNIP3L mRNA, set 1: 0.0858

EMP3
- BNIP3L mRNA, set 1: 0.112

2 entries from above, sorted by “BNIP3L mRNA, set 1”, descending:
PRAF2
- BNIP3L mRNA, set 1: 0.0933

CAMSAP2
- BNIP3L mRNA, set 1: 0.0647

The results go on.
FBXO34
- BNIP3L mRNA, set 1: 0.0731

CA14
- BNIP3L mRNA, set 1: 0.14

MLKL
- BNIP3L mRNA, set 1: 0.117

AEN
- BNIP3L mRNA, set 1: 0.127

IFT52
- BNIP3L mRNA, set 1: 0.0855

ACTB
- BNIP3L mRNA, set 1: 0.0942

PPA2
- BNIP3L mRNA, set 1: 0.0741

PHACTR4
- BNIP3L mRNA, set 1: 0.114

PNOC
- BNIP3L mRNA, set 1: 0.156

GUCD1
- BNIP3L mRNA, set 1: 0.2

ZNF235
- BNIP3L mRNA, set 1: 0.0951

PLTP
- BNIP3L mRNA, set 1: 0.0645

STX18
- BNIP3L mRNA, set 1: 0.112

UIMC1
- BNIP3L mRNA, set 1: 0.155

CGB8
- BNIP3L mRNA, set 1: 0.0998

ASIC2
- BNIP3L mRNA, set 1: 0.064

CDCP1
- BNIP3L mRNA, set 1: 0.068

FARP1
- BNIP3L mRNA, set 1: 0.171

DKK3
- BNIP3L mRNA, set 1: 0.0699

NGB
- BNIP3L mRNA, set 1: 0.0674

FAM53C
- BNIP3L mRNA, set 1: 0.221
